In publication doi:10.1101/2023.06.09.544244 one finds binding data, which are given here for one substance.

Sequences of proteins named here, by UniProt entry; tags and fusion partners are left off. A change or cut given only in a name is not applied to a line headed by its entry.
UniProt P06223, whole entry, looked up, stated change not applied: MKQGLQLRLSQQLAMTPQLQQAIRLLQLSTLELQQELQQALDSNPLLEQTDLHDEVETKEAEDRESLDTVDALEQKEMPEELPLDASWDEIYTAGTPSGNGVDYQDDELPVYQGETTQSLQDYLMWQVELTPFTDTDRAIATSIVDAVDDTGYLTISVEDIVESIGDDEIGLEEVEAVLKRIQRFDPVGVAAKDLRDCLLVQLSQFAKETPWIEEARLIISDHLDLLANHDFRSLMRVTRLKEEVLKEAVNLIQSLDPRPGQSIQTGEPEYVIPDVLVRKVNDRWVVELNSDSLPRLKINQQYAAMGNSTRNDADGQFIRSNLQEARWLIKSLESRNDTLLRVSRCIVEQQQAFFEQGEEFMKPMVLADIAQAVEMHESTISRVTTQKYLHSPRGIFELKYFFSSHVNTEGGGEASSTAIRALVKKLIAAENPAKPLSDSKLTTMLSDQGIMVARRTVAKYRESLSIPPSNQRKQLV

These are yes or no findings as the source states them, for the method shown. Some binding calls cover weakened binding; strength is not graded here.

For assay [1], the target named is RNAP β' subunit (UniProt P0A8T7). Kind of assay: cryo-EM structure.
For assay [2], the target named is RNAP β subunit (UniProt P0A8V2). Nature of the assay: cryo-EM structure.

On to “σ^54 R336A bypass mutant (from UniProt P06223 1-477)”, for which the binding entry in assay [1] and in assay [2] was “binds” in each case.
